This is an account of results in article PMC9379416.

Chains of the proteins cited; added tags and fusions are not shown.
UniProt Q9BUJ2: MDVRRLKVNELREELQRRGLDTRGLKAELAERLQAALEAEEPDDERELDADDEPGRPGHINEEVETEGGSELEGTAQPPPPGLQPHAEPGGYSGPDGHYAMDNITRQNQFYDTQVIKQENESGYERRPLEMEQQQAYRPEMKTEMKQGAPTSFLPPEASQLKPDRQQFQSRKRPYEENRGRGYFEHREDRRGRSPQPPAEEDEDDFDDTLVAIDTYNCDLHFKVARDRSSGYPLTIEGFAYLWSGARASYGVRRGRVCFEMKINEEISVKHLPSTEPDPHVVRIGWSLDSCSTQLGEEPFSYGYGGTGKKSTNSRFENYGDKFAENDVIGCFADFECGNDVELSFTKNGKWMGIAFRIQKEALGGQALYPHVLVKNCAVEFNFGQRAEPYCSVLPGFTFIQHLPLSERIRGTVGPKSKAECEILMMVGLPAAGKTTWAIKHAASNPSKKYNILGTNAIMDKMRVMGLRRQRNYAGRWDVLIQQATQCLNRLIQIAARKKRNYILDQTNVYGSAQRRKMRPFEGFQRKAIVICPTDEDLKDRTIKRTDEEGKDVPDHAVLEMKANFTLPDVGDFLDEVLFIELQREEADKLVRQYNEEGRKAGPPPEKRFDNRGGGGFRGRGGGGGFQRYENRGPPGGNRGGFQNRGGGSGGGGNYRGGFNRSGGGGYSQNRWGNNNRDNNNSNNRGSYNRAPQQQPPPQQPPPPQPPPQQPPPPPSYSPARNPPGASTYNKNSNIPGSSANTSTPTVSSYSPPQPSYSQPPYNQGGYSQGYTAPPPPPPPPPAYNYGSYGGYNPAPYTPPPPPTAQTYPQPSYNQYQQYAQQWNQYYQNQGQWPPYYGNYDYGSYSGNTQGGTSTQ

The target of the assay is FLAG-hnRNP UL1 (heterogeneous nuclear ribonucleoprotein U-like protein 1), transiently expressed (human) (UniProt Q9BUJ2). Nature of the assay: affinity purification with mass spectrometry; anti-FLAG immunoprecipitation from whole-cell protein extract of HEK293T cells 24 h after transfection with FLAG-hnRNP UL1; nontransfected cells as control; precipitated proteins identified by mass spectrometry.

Results are given in words; binding and its absence hold for the method and conditions named. In cells and extracts the contact can be indirect. A yes stands for co-enrichment or nearness to the bait. Other partners may have been found.

B1: RNA-binding protein 28 (RBM28) (protein, UniProt Q9NW13 1-759)
chain: MAGLTLFVGRLPPSARSEQLEELFSQVGPVKQCFVVTEKGSKACRGFGYVTFSMLEDVQRALKEITTFEGCKINVTVAKKKLRNKTKEKGKNENSECPKKEPKAKKAKVADKKARLIIRNLSFKCSEDDLKTVFAQFGAVLEVNIPRKPDGKMRGFGFVQFKNLLEAGKALKGMNMKEIKGRTVAVDWAVAKDKYKDTQSVSAIGEEKSHESKHQESVKKKGREEEDMEEEENDDDDDDDDEEDGVFDDEDEEEENIESKVTKPVQIQKRAVKRPAPAKSSDHSEEDSDLEESDSIDDGEELAQSDTSTEEQEDKAVQVSNKKKRKLPSDVNEGKTVFIRNLSFDSEEEELGELLQQFGELKYVRIVLHPDTEHSKGCAFAQFMTQEAAQKCLLAASPENEAGGLKLDGRQLKVDLAVTRDEAAKLQTTKVKKPTGTRNLYLAREGLIRAGTKAAEGVSAADMAKRERFELLKHQKLKDQNIFVSRTRLCLHNLPKAVDDKQLRKLLLSATSGEKGVRIKECRVMRDLKGVHGNMKGQSLGYAFAEFQEHEHALKALRLINNNPEIFGPLKRPIVEFSLEDRRKLKMKELRIQRSLQKMRSKPATGEPQKGQPEPAKDQQQKAAQHHTEEQSKVPPEQKRKAGSTSWTGFQTKAEVEQVELPDGKKRRKVLALPSHRGPKIRLRDKGKVKPVHPKKPKPQINQWKQEKQQLSSEQVSRKKAKGNKTETRFNQLVEQYKQKLLGPSKGAPLAKRSKWFDS
As for B1, the binding entry is listed as “binds”.

B2: rRNA processing protein 1 homolog B (RRP1B) (protein, UniProt Q14684 1-758)
chain: MAPAMQPAEIQFAQRLASSEKGIRDRAVKKLRQYISVKTQRETGGFSQEELLKIWKGLFYCMWVQDEPLLQEELANTIAQLVHAVNNSAAQHLFIQTFWQTMNREWKGIDRLRLDKYYMLIRLVLRQSFEVLKRNGWEESRIKVFLDVLMKEVLCPESQSPNGVRFHFIDIYLDELSKVGGKELLADQNLKFIDPFCKIAAKTKDHTLVQTIARGVFEAIVDQSPFVPEETMEEQKTKVGDGDLSAEEIPENEVSLRRAVSKKKTALGKNHSRKDGLSDERGRDDCGTFEDTGPLLQFDYKAVADRLLEMTSRKNTPHFNRKRLSKLIKKFQDLSEGSSISQLSFAEDISADEDDQILSQGKHKKKGNKLLEKTNLEKEKGSRVFCVEEEDSESSLQKRRRKKKKKHHLQPENPGPGGAAPSLEQNRGREPEASGLKALKARVAEPGAEATSSTGEESGSEHPPAVPMHNKRKRPRKKSPRAHREMLESAVLPPEDMSQSGPSGSHPQGPRGSPTGGAQLLKRKRKLGVVPVNGSGLSTPAWPPLQQEGPPTGPAEGANSHTTLPQRRRLQKKKAGPGSLELCGLPSQKTASLKKRKKMRVMSNLVEHNGVLESEAGQPQALGSSGTCSSLKKQKLRAESDFVKFDTPFLPKPLFFRRAKSSTATHPPGPAVQLNKTPSSSKKVTFGLNRNMTAEFKKTDKSILVSPTGPSRVAFDPEQKPLHGVLKTPTSSPASSPLVAKKPLTTTPRRRPRAMDFF
B2: the binding entry is reported as “binds”.

B3: ribosome biogenesis protein BRX1 homolog (BXDC2/BRX1) (protein, UniProt Q8TDN6 1-353)
chain: MAATKRKRRGGFAVQAKKPKRNEIDAEPPAKRHATAEEVEEEERDRIPGPVCKGKWKNKERILIFSSRGINFRTRHLMQDLRMLMPHSKADTKMDRKDKLFVINEVCEMKNCNKCIYFEAKKKQDLYMWLSNSPHGPSAKFLVQNIHTLAELKMTGNCLKGSRPLLSFDPAFDELPHYALLKELLIQIFSTPRYHPKSQPFVDHVFTFTILDNRIWFRNFQIIEEDAALVEIGPRFVLNLIKIFQGSFGGPTLYENPHYQSPNMHRRVIRSITAAKYREKQQVKDVQKLRKKEPKTLLPHDPTADVFVTPAEEKPIEIQWVKPEPKVDLKARKKRIYKRQRKMKQRMDSGKTK
Regarding B3, the binding entry was “binds”.

B4: nuclear fragile X mental retardation-interacting protein 2 (NUFIP2) (protein, UniProt Q7Z417 1-695)
chain: MEEKPGQPQPQHHHSHHHPHHHPQQQQQQPHHHHHYYFYNHSHNHHHHHHHQQPHQYLQHGAEGSPKAQPKPLKHEQKHTLQQHQETPKKKTGYGELNGNAGEREISLKNLSSDEATNPISRVLNGNQQVVDTSLKQTVKANTFGKAGIKTKNFIQKNSMDKKNGKSYENKSGENQSVDKSDTIPIPNGVVTNNSGYITNGYMGKGADNDGSGSESGYTTPKKRKARRNSAKGCENLNIVQDKIMQQETSVPTLKQGLETFKPDYSEQKGNRVDGSKPIWKYETGPGGTSRGKPAVGDMLRKSSDSKPGVSSKKFDDRPKGKHASAVASKEDSWTLFKPPPVFPVDNSSAKIVPKISYASKVKENLNKTIQNSSVSPTSSSSSSSSTGETQTQSSSRLSQVPMSALKSVTSANFSNGPVLAGTDGNVYPPGGQPLLTTAANTLTPISSGTDSVLQDMSLTSAAVEQIKTSLFIYPSNMQTMLLSTAQVDLPSQTDQQNLGDIFQNQWGLSFINEPSAGPETVTGKSSEHKVMEVTFQGEYPATLVSQGAEIIPSGTEHPVFPKAYELEKRTSPQVLGSILKSGTTSESGALSLEPSHIGDLQKADTSSQGALVFLSKDYEIESQNPLASPTNTLLGSAKEQRYQRGLERNDSWGSFDLRAAIVYHTKEMESIWNLQKQDPKRIITYNEAMDSPDQ
B4: the binding result was “binds”.
